This is a selection; strong and weak results do not stand in their true shares. For part of these data: At the low end of the ranking the order means little. The list shows a part of the results. For part of these data: Construct or isoform of the protein are uncertain.
Tests used:
HSF1 = HSF1 (UniProt Q00613); assay: DAPPL (digital affinity profiling via proximity ligation, sequencing); details: 10 mM Tris-HCl pH 7.5, 50 mM NaCl, 1 mM DTT, 4% glycerol, room temperature, 30 min; GST-TFs on glutathione beads, 16-mer random dsDNA library, 0.1% …; high values mean tight binding; double strand, one strand shown; scale: fold enrichment (6-mer frequency, TF over GST control)
ELF2 = target: T1, ELF2 (UniProt Q15723); assay: as above; details: 10 mM Tris-HCl pH 7.5, 50 mM NaCl, 1 mM DTT, 4% glycerol, room temperature, 30 min; GST-TFs on glutathione beads, 16-mer random dsDNA library, 0.1% …; high values mean tight binding; double strand, one strand shown; scale: fold enrichment (6-mer frequency, TF over GST control)
T1 sequence: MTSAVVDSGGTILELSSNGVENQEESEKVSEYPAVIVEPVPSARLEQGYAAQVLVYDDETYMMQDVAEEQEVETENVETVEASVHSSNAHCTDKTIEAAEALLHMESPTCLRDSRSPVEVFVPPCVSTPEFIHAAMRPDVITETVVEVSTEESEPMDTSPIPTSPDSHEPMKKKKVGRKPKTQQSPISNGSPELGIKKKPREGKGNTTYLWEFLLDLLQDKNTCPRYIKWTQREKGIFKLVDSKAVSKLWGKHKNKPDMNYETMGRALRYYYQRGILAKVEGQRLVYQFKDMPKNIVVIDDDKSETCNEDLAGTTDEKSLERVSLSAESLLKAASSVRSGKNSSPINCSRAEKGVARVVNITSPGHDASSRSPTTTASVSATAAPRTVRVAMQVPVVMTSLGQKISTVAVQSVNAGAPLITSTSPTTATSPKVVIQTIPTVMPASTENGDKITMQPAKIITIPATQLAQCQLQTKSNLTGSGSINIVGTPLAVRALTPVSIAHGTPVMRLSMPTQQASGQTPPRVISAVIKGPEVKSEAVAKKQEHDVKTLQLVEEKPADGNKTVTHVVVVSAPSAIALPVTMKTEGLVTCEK

The chains behind the UniProt entries cited, without tags or fusion partners. Where a name states a change or a piece, a line headed by the entry shows the natural chain unless it says otherwise.
UniProt Q00613: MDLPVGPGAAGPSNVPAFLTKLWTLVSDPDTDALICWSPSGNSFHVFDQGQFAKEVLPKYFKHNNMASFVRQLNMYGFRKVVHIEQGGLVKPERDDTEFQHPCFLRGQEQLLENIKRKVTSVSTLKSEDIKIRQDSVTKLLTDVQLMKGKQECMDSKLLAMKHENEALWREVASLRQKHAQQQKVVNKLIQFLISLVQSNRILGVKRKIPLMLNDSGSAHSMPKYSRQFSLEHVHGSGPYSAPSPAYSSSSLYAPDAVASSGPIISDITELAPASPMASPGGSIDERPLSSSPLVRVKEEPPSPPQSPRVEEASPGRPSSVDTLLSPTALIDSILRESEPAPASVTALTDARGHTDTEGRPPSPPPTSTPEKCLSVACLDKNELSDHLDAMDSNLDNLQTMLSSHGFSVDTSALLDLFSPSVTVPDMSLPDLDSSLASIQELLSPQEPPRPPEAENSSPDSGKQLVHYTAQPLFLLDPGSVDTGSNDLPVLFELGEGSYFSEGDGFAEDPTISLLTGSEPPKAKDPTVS

Sequence	binding signal (HSF1)	binding signal (ELF2)
GTGCGA	0.817	0.837
CAGACA	0.734	0.795
AAGAGA	0.939	0.816
GAGCCA	0.513	0.57
AGAGTG	0.621	0.61
GCATGA	0.724	0.77

— publication PMC7862700
